In assay [1] the target is T1, Ulp2-VN/VC (S. cerevisiae) (UniProt P40537).
T1 sequence: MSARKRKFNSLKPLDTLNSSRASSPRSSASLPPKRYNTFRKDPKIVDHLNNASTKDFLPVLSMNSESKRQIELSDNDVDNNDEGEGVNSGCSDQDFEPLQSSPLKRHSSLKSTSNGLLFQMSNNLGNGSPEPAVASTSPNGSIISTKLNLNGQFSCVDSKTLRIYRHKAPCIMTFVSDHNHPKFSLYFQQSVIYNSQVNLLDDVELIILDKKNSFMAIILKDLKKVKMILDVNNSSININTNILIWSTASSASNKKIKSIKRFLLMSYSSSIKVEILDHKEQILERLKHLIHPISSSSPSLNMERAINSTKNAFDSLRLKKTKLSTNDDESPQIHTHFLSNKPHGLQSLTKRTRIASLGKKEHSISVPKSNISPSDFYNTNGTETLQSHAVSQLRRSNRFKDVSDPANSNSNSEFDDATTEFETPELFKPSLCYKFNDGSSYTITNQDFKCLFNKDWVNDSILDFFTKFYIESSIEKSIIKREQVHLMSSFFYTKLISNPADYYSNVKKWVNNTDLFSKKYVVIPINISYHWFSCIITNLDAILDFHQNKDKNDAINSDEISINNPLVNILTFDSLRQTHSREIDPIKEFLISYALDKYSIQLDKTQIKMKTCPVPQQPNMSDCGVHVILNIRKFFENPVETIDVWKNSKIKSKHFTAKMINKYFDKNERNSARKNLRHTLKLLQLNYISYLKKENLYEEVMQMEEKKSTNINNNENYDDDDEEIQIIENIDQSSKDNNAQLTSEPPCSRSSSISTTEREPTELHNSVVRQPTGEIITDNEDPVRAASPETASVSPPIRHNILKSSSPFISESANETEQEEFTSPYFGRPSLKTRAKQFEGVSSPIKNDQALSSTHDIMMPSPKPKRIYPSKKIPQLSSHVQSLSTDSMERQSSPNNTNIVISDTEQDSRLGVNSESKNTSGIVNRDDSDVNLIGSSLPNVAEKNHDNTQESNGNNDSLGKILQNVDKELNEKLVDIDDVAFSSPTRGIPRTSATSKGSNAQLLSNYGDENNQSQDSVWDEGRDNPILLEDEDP
As to the kind of experiment: split reporter.

The target of assay [2] is T2, Mrc1-VC/VN (S. cerevisiae) (UniProt P25588).
T2 sequence: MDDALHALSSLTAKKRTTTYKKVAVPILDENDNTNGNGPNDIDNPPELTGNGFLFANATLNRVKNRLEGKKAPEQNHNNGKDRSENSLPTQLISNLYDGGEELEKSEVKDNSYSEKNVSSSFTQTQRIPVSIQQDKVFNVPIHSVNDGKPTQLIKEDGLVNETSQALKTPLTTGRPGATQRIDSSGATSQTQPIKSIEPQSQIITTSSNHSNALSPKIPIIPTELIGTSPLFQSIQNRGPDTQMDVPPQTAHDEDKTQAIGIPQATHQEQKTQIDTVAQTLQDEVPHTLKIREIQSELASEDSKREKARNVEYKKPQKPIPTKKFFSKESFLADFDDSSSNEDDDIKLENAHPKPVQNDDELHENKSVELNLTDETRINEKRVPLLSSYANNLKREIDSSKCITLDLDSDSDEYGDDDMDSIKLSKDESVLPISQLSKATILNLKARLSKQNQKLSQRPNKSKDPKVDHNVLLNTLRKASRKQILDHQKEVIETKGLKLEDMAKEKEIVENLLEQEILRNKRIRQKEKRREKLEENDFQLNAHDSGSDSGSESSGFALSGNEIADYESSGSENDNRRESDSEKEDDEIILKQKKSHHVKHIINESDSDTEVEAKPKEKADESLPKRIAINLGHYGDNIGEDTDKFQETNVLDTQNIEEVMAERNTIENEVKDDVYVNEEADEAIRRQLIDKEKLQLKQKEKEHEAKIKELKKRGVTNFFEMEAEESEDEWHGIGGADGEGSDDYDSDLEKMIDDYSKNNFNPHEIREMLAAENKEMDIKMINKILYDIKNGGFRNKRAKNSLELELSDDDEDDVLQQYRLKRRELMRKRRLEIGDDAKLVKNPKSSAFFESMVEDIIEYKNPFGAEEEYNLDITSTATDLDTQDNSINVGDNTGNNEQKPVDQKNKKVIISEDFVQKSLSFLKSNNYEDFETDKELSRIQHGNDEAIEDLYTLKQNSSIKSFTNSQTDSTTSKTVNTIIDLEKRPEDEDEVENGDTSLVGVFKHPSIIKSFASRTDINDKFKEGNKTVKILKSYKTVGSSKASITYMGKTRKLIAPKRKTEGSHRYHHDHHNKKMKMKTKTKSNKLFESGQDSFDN
As to the kind of experiment: split reporter.

These are yes or no findings as the source states them, for the method shown. In cells and extracts the contact can be indirect. Some binding calls cover weakened binding; strength is not graded here.

B1: Otu1-VN/VC (protein, UniProt P43558 1-301)
chain: MKLKVTGAGINQVVTLKQDATLNDLIEHINVDVKTMRFGYPPQRINLQGEDASLGQTQLDELGINSGEKITIESSDSNESFSLPPPQPKPKRVLKSTEMSIGGSGENVLSVHPVLDDNSCLFHAIAYGIFKQDSVRDLREMVSKEVLNNPVKFNDAILDKPNKDYAQWILKMESWGGAIEIGIISDALAVAIYVVDIDAVKIEKFNEDKFDNYILILFNGIHYDSLTMNEFKTVFNKNQPESDDVLTAALQLASNLKQTGYSFNTHKAQIKCNTCQMTFVGEREVARHAESTGHVDFGQNR
In the case of B1, the binding entry in assay [1] and in assay [2] was “binds” throughout.

For the origin of these results see doi:10.1101/2021.09.16.460581.
